This is an account of results in article PMC5466756.

Amino acid sequences for entries named in this document (tags omitted). Residues count along the entry.
UniProt P28799, residues 18-593: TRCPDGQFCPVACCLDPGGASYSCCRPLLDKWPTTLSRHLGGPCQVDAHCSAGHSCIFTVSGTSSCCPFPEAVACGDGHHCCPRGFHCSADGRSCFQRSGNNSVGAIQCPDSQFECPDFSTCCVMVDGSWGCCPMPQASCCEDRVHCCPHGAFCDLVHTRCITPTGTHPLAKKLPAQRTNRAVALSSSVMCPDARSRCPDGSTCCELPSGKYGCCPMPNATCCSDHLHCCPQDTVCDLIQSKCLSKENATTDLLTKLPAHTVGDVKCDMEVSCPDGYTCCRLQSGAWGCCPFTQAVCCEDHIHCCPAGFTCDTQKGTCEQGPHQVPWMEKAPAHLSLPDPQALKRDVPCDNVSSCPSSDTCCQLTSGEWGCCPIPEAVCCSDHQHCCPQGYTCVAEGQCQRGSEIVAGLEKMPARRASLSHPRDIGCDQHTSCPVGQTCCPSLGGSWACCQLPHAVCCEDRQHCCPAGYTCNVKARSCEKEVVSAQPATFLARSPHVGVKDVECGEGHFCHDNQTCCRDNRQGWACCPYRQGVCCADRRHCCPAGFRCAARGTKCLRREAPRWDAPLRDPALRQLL
UniProt P11021, residues 19-654: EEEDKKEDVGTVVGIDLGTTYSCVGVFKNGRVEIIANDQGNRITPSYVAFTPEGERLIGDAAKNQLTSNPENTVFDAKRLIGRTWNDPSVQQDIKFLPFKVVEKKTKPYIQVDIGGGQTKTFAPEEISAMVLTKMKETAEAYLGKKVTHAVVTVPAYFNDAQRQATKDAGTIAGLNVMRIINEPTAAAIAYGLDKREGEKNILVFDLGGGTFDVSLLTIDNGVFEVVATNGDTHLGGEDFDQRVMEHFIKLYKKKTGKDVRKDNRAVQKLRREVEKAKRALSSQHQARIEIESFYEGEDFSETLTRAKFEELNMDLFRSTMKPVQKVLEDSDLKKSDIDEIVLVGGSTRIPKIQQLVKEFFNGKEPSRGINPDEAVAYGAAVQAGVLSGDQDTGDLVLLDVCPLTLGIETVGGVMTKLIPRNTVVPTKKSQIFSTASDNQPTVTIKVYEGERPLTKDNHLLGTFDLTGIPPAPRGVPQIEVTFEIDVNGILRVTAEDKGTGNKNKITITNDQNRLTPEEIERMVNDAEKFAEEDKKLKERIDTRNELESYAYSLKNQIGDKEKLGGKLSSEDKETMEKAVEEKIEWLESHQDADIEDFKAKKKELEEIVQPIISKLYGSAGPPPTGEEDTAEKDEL

No constants are given. Whether binding was seen depends on the method and setting. In cells and extracts the contact can be indirect. Some results given as binding are weak or reduced against the parent protein; the word gives no strength.

For experiment [1], the target named is Granulin-epithelin precursor (human) (UniProt P28799). In words: co-IP; lysate of the membrane fraction of HepG2-FL incubated with anti-GEP antibody A23 or anti-GRP78 antibody overnight at 4 °C, protein G-Sepharose, immunoblot for GEP and GRP78; controls antibody alone and lysate alone.
Experiment [2] has as its target 78-kDa glucose-regulated protein (human (endogenous in Hep3B and HepG2)) (UniProt P11021). Described as above.

With “78-kDa glucose-regulated protein (from UniProt P11021 19-654)”, the binding entry in experiment [1] was “binds”. “Granulin-epithelin precursor (from UniProt P28799 18-593)”: the binding entry in experiment [2] is “binds”.
